According to PMC5653760:
Results are given in words; binding and its absence hold for the method and conditions named. In cells and extracts the contact can be indirect. Some entries that bind do so weakly or less than the wild type. Tags and fused reporters may be left off the sequences shown.

Target: T1, V5-tagged α4 (UniProt P78318)
T1 sequence: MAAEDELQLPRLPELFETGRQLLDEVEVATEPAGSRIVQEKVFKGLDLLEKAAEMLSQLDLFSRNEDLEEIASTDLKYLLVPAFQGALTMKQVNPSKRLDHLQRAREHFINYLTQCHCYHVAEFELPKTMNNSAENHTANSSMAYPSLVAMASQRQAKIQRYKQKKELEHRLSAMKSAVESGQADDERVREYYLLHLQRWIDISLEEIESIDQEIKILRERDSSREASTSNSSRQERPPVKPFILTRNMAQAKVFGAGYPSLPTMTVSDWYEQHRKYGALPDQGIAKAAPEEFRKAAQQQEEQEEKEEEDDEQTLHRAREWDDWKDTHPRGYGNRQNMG
Test: co-IP; FLAG-MID1 and α4-V5 co-expressed in HEK293T; lysate in IP-buffer (50 mM Tris pH 7.5, 2.5 mM MgCl2, 100 mM NaCl, 1 mM DTT); precipitated with V5 antibodies and Protein A-Agarose; immunoprecipitates incubated with or without 100 µM resveratrol for 2 hours and washed; blots with FLAG and V5 antibodies

B1: FLAG-tagged MID1 (protein, UniProt O15344-1 1-667)
chain: METLESELTCPICLELFEDPLLLPCAHSLCFNCAHRILVSHCATNESVESITAFQCPTCRHVITLSQRGLDGLKRNVTLQNIIDRFQKASVSGPNSPSETRRERAFDANTMTSAEKVLCQFCDQDPAQDAVKTCVTCEVSYCDECLKATHPNKKPFTGHRLIEPIPDSHIRGLMCLEHEDEKVNMYCVTDDQLICALCKLVGRHRDHQVAALSERYDKLKQNLESNLTNLIKRNTELETLLAKLIQTCQHVEVNASRQEAKLTEECDLLIEIIQQRRQIIGTKIKEGKVMRLRKLAQQIANCKQCIERSASLISQAEHSLKENDHARFLQTAKNITERVSMATASSQVLIPEINLNDTFDTFALDFSREKKLLECLDYLTAPNPPTIREELCTASYDTITVHWTSDDEFSVVSYELQYTIFTGQANVVSLCNSADSWMIVPNIKQNHYTVHGLQSGTKYIFMVKAINQAGSRSSEPGKLKTNSQPFKLDPKSAHRKLKVSHDNLTVERDESSSKKSHTPERFTSQGSYGVAGNVFIDSGRHYWEVVISGSTWYAIGLAYKSAPKHEWIGKNSASWALCRCNNNWVVRHNSKEIPIEPAPHLRRVGILLDYDNGSIAFYDALNSIHLYTFDVAFAQPVCPTFTVWNKCLTIITGLPIPDHLDCTEQLP
  binding: binds
